Earlier results as cited in US12590950B2, “Methods for predicting ER-mediated DNA damage” (UNIVERSITY OF MASSACHUSETTS, priority 2019, dated 2026).
Where two headings read alike, the source gives them in different places.

Conditions: cited from earlier work; for Median blood concentration: human blood

For `C[C@]12CC[C@@H]3c4ccc(O)cc4CC[C@H]3[C@@H]1CC[C@@H]2O` [E2, 17β-estradiol, reference compound], the Median blood concentration (luteal) is given as 0.0002 to 0.0008 µM, the Median blood concentration (ovulatory) is given as 0.0003 to 0.0018 µM and the Median blood concentration (pregnancy) is given as 0.074 µM. The “median level in normal cycling women” value (normal cycling women) was < 2 nM and the “median level during pregnancy” value (pregnancy) was 74 nM.
